In the supplement of paper PMC7858590:
± gives the standard deviation of the averaged measurements. In all, about 3,800 compounds were measured (“cell shape (eccentricity) Z-score vs DMSO control”: median about 1.1, lowest 2% from about -4.7 on). The list shows a part of the results.

system: human monocyte-derived macrophages (M0); assay: cell shape (eccentricity) Z-score vs DMSO control; higher = more elongated, M2-like morphology; conditions: 20 µM; 24 h; macrophage state: M0 (M-CSF)

Compound | cell shape (Z-score)
CC[C@@H](C(=O)[C@@H](C)[C@@H](O)[C@H](C)[C@@H]1O[C@@H]([C@@H](CC)C(=O)O)CC[C@@H]1C)[C@H]1O[C@]2(C=C[C@@H](O)[C@]3(CC[C@@](C)(C4CC[C@](O)(CC)[C@H](C)O4)O3)O2)[C@H](C)C[C@@H]1C (stereo partly specified) | -1.21
CC(C(=O)OC1CC2CCC(C1)N2C)c1ccc(Br)cc1 (stereo unspecified) | 3.63
N#Cc1ccc(N2CCN(C(=O)COc3ccc4[nH]cc(CCN)c4c3)CC2)cc1 | -2.51
c1ccc(CC(c2ccccc2)N2CCCCC2)cc1 (stereo unspecified) | 2.82
COC1CC(OC2CCC3(C)C(CCC4(O)C3CC(OC(=O)c3ccccc3)C3(C)C(O)(C(C)=O)CCC43O)C2)OC(C)C1OC1CC(OC)C(OC2OC(C)C(O)C(OC)C2O)C(C)O1 (stereo unspecified) | -0.302 ± 2.2
CC1=NN=C(c2ccc(N)cc2)c2cc3c(cc2C1)OCO3 | 2.11
NCCc1cccc(O)c1 | -0.332
O=c1cccc2n1C[C@H]1CNCC2C1 | -1.35
CC(=O)O[C@@H](c1nc2ccccc2c(=O)n1[C@@H]1C[C@@]2(OC1=O)c1ccccc1N1C(=O)[C@H](C)N(O)[C@@H]12)C(C)C | 2.14
CC1(C)C2CC(=O)[C@]3(C)C(CC[C@@]4(C)[C@H](c5ccoc5)OC(=O)[C@H]5O[C@]543)[C@@]2(C)C(=O)C[C@H]1O (stereo partly specified) | 2.13
CC(N)Cc1c[nH]c2ccc(OCc3cccs3)cc12 (stereo unspecified) | 0.161
C[C@H]1OC(O[C@H]2[C@@H](O)CC(O[C@H]3[C@@H](O)C[C@H](O[C@H]4CC[C@]5(C)C6CC[C@]7(C)[C@@H](C8=CC(=O)OC8)[C@@H](O)C[C@]7(O)[C@@H]6CC[C@@H]5C4)O[C@@H]3C)O[C@@H]2C)C[C@H](O)C1O (stereo partly specified) | 1.14
COC[C@@]1(CO)C(=O)[C@H]2CC[N@@]1CC2 | 1.98
CCCCc1ccc(C(=O)O)nc1 | -2.2
c1ccc2sc(C3(N4CCCCC4)CCCCC3)cc2c1 | 0.124
CC(C)=CC1C(C(=O)OCc2cccc(Oc3ccccc3)c2)C1(C)C (stereo unspecified) | 3.73
C[C@]12CC[C@H](O)C[C@H]1CC[C@@H]1[C@@H]2CC[C@]2(C)[C@@H](c3ccc(=O)oc3)CC[C@]12O | 0.742
COc1ccc(C(CN(C)C)C2(O)CCCCC2)cc1 (stereo unspecified) | 2.9
Cc1cccc(C(C)c2cnc[nH]2)c1C (stereo unspecified) | 2.03
COc1ccc2c3c([nH]c2c1)[C@H](CC(C)C)N1C(=O)[C@H](CCC(=O)OC(C)(C)C)NC(=O)[C@@H]1C3 | 9.45
CN1CCN(C(=O)OC2c3nccnc3C(=O)N2c2ccc(Cl)cn2)CC1 (stereo unspecified) | 0.709
CCC(C)/C=C(C)/C=C/C1=CC2=C(Cl)C(=O)C(C)(OC(C)=O)C(=O)C2=CO1 (stereo unspecified) | 1.12
COc1ccc2[nH]cc(CCNCc3ccc(Br)cc3)c2c1 | 2.35

Individual results from above:
Under cell shape (Z-score), C[C@]12CC[C@H](O)C[C@H]1CC[C@@H]1[C@@H]2CC[C@]2(C)[C@@H](c3ccc(=O)oc3)CC[C@]12O is entered as 0.742
Under cell shape (Z-score), CC1=NN=C(c2ccc(N)cc2)c2cc3c(cc2C1)OCO3 is entered as 2.11
Under cell shape (Z-score), Cc1cccc(C(C)c2cnc[nH]2)c1C (stereo unspecified) is entered as 2.03
Under cell shape (Z-score), c1ccc(CC(c2ccccc2)N2CCCCC2)cc1 (stereo unspecified) is entered as 2.82
Under cell shape (Z-score), CC(C(=O)OC1CC2CCC(C1)N2C)c1ccc(Br)cc1 (stereo unspecified) is entered as 3.63
Under cell shape (Z-score), COc1ccc2c3c([nH]c2c1)[C@H](CC(C)C)N1C(=O)[C@H](CCC(=O)OC(C)(C)C)NC(=O)[C@@H]1C3 is entered as 9.45
Under cell shape (Z-score), CC(C)=CC1C(C(=O)OCc2cccc(Oc3ccccc3)c2)C1(C)C (stereo unspecified) is entered as 3.73

(more compounds)

Compound | cell shape (Z-score)
C[C@]12CC[C@H]3[C@@H](CCC4=CC(=O)CC[C@@]43C)[C@@H]1CC[C@H]2O | 0.493
CC(=O)OC1CN2CCC1CC2 (stereo unspecified) | 1.37
CC(CCc1ccccc1)NC(C)C(O)c1ccc(O)cc1 (stereo unspecified) | 1.98
C[C@]12CCC(=O)C=C1CCC1C2CC[C@@]2(C)C1CC[C@@H]2O (stereo partly specified) | 1.06
O=C1NC(=O)c2c1c1c3ccccc3[nH]c1c1[nH]c3ccccc3c21 | 15.5
CCC1/C=C/C=C/C[C@H](C)[C@@H](O)[C@](C)(O)C(=O)[C@@H](C)[C@H](O)[C@@H](C)C(=O)[C@H](C)[C@@H](O)[C@H](C)/C=C/C(=O)OC2[C@@H](C)C(CC1)OC1(CC[C@@H](C)C(C[C@H](C)O)O1)[C@@H]2C (stereo partly specified) | 7.16
C[C@@H]([C@H](O)c1ccccc1)N(C)C | -2.36
CCCCC(CC)COC(=O)c1ccccc1C(=O)OCC(CC)CCCC (stereo unspecified) | 0.876 ± 0.39
COc1ccc2c(c1)[nH]c1c(C)nccc12 | -5.5
CC1CC(C)C(=O)C(C(O)CC2CC(=O)NC(=O)C2)C1 (stereo unspecified) | 1.3
CC[C@@]1(O)C(=O)OCc2c1cc1n(c2=O)Cc2cc3ccccc3nc2-1 | 1.59
O=C1Nc2ccccc2C2(CCN(CCc3ccc(C(F)(F)F)cc3)CC2)O1 | -0.107
C#CC1(O)CCC2C3CCC4=CC(=O)CCC4(C)C3CCC21C (stereo unspecified) | 0.708
O=P1(NCCCl)OCCCN1CCCl (stereo unspecified) | 2.31
O=C1CC[C@@]2(O)[C@H]3Cc4ccc(O)c5c4C2(CCN3CC2CC2)[C@H]1O5 | 0.776
CN1CCC(c2c[nH]c3ccc(O)cc23)CC1 | 1.42
Cc1sc2c(c1C)C(c1ccc(Cl)cc1)=N[C@@H](CC(=O)OC(C)(C)C)c1nnc(C)n1-2 | 7.09
COc1ccc2[nH]cc(CCN)c2c1 | 3.56
CN1C[C@H](C(=O)N[C@]2(C)O[C@@]3(O)[C@@H]4CCCN4C(=O)[C@H](Cc4ccccc4)N3C2=O)C[C@@H]2c3cccc4[nH]cc(c34)C[C@H]21 | 3.57
c1ccc(C2(c3ccccc3)CC2C2=NCCN2)cc1 (stereo unspecified) | -0.00518
COC1=CC(=O)O[C@@H](CCc2ccccc2)C1 | 1.68
CC(C)NCC(O)c1ccc(N)c(C#N)c1 (stereo unspecified) | -0.285
C[C@H]1C[C@@H](O)[C@]2(O)[C@@]13CC(=O)OC[C@@]2(C)[C@](C)(O)C(=O)C3 | 1.22

Compound | cell shape (Z-score)
NC(=O)c1cc([N+](=O)[O-])cc([N+](=O)[O-])c1 | 1.58
CC(C)CC1C(=O)N2CCCC2C2(O)OC(NC(=O)C3C=C4c5cccc6[nH]c(Br)c(c56)CC4N(C)C3)(C(C)C)C(=O)N12 (stereo unspecified) | 4.45
CC(=O)O[C@@H]1CC2C(C)(C)C(=O)C=C[C@]2(C)C2CC[C@]3(C)C(=CC(=O)O[C@H]3c3ccoc3)[C@@]21C (stereo partly specified) | -6.06
CN1[C@@H]2CC[C@H]1C[C@@H](OC(=O)N1Cc3ccccc3NC1=O)C2 | 2.68
C=CCN1CC[C@]23c4c5ccc(O)c4OC2C(=O)CC[C@@]3(O)[C@H]1C5 (stereo partly specified) | -1.34
Cc1cc(O)ccc1Cl | -0.646
CN1C2CCC1CC(OC(c1ccccc1)c1ccccc1N)C2 (stereo unspecified) | 13.7
COc1ccc2c3c4n(c2c1)[C@@H](C=C(C)C)OOC(C)(C)C[C@@H]4N1C(=O)[C@@H]2CCCN2C(=O)[C@]1(O)[C@H]3OCC=C(C)C | -1.26
COc1cc2c(cc1OC)-c1c(oc3c4c(ccc3c1=O)OC(C(C)C)C4)CO2 (stereo unspecified) | 4.81
CC1CCCCCC(=O)c2c(O)cc(O)cc2CC(=O)O1 (stereo unspecified) | 2.72
COc1ccc(CC2C(=O)OCC2Cc2ccc3c(c2)OCO3)cc1OC (stereo unspecified) | 1.72
c1cc2c(c(N3CCNCC3)c1)OCCO2 | 7.56
C#CCN(C)C(C)Cc1ccccc1 (stereo unspecified) | -2.31
CO[C@H]1[C@H](O)[C@H](O[C@H]2CC[C@]3(C)C4CC[C@]5(C)[C@H](C6=CC(=O)OC6)CC[C@]5(O)C4CC[C@@H]3C2)O[C@@H](C)[C@@H]1O (stereo partly specified) | 1.07
CC(C)=CCc1c(O)cc2c(c1O)C(=O)CC(c1ccc(O)cc1)O2 (stereo unspecified) | 1.18 ± 0.047
Cc1ccc2c(c1)Cc1c(C(=O)NC3CCCCC3)nn(-c3ccc(Cl)cc3Cl)c1-2 | 2.43
COc1ccc(CN2CCNCC2)c(OC)c1OC | 2.48
CC(C)CC1C(=O)N2CCC[C@H]2C2(O)O[C@](NC(=O)C3C=C4c5cccc6[nH]c(Br)c(c56)C[C@H]4N(C)C3)(C(C)C)C(=O)N12 (stereo partly specified) | 4.71
CC(C)N(CCC(C(N)=O)(c1ccccc1)c1ccccn1)C(C)C (stereo unspecified) | 2.88
CC(C)=CCCC1(C)C=Cc2c(O)c3c(c(CC=C(C)C)c2O1)OC12C(=CC4CC1C(C)(C)OC2(C/C=C(/C)C(=O)O)C4=O)C3=O (stereo unspecified) | -3.65
CN1C2CCC1CC(OC(=O)c1cc(Cl)cc(Cl)c1)C2 (stereo unspecified) | 0.939
CCCN(CC=CI)C1CCc2ccc(O)cc2C1 (stereo unspecified) | 4.9
CN1CCc2cc3c(cc2[C@H]1C1OC(=O)c2c1ccc1c2OCO1)OCO3 (stereo partly specified) | 0.327

Compound | cell shape (Z-score)
CC1=CC(=O)c2c(O)cccc2C1=O | -4.68
CC(C)[C@]1(O)[C@@H](OC(=O)c2ccc[nH]2)[C@@]2(O)[C@@]3(C)C[C@]4(O)O[C@@]5([C@H](O)[C@@H](C)CC[C@]35O)[C@@]2(O)[C@]41C | 0.223
COC(=O)[C@@]12C(=O)C(C)C(=O)[C@]1(C)C(C)=C[C@H]1[C@]3(C=O)CC[C@H](OC(C)=O)C(C)(C)[C@H]3CC[C@@]12C (stereo partly specified) | 0.645
O=C(O)CCCOc1ccc(Cl)cc1Cl | 3.24
CCN(CC)CCOC(=O)C(C)(c1ccccc1)c1ccccc1 | 1.67
COc1cc2c(c(OC)c1OC)-c1ccc(OC)c(=O)cc1C(NC(C)=O)CC2 (stereo unspecified) | 8.73
CN(C)CCN(C)CCc1ccc(Cl)c(Cl)c1 | 2.25
C[As](C)SC[C@H](NC(=O)CC[C@H](N)C(=O)O)C(=O)NCC(=O)O | 0.0955
COC1C(O)CC(OC2C(O)CC(OC3C(O)CC(OC4CCC5(C)C(CCC6[C@@H]5CC(O)C5(C)C(C7=CC(=O)OC7)CCC65O)C4)OC3C)OC2C)OC1C (stereo partly specified) | -1.9
CCOC(=O)c1ncn2c1CN(C)C(=O)c1cc(N=[N+]=[N-])ccc1-2 | 2.52
CN1CCc2cc(Cl)c(O)cc2[C@H]2c3ccccc3CC[C@@H]21 | 0.696
CC12CC[C@H]3C(CCC4(O)CC(O)CCC34O)C1(O)CCC2C1=CC(=O)OC1 (stereo partly specified) | 1.22
C[C@@]12C[C@@H](c3ccoc3)OC(=O)C1CC[C@]1(C)[C@H]2[C@H]2C=C[C@]1(O)C(=O)O2 (stereo partly specified) | -0.795
COc1cc(OC)c(OC)cc1C=O | 2.29
C[C@@H]1C[C@@H]([C@H](O)CC2CC(=O)NC(=O)C2)C(=O)[C@@H](C)C1 | -0.745
C1CCc2nnnn2CC1 | -3.13
COC1=CC(=O)OC(/C=C/c2ccccc2)C1 (stereo unspecified) | 3.39
COc1cc(C2c3cc4c(cc3CC3COC(=O)C32)OCO4)cc(OC)c1OC (stereo unspecified) | -0.15
CC(Cc1ccc(O)cc1)NCC(O)c1cc(O)cc(O)c1 (stereo unspecified) | 1.87
COC(=O)C1=COC(C)C2CN3CCc4c([nH]c5cc(OC)ccc45)C3CC12 (stereo unspecified) | -1.96
C=CC/C=C\C/C=C\CCCCCCCc1cc(O)cc(O)c1 | 1.19
CCCCC/C=C\C/C=C\C/C=C\C/C=C\CCCC(=O)NCc1ccc(O)c(OC)c1 | -0.144
